Values of other authors, collected in patent US20090136979A1, “Class IIA Histone Deacetylase (HDAC) Substrate” (ISTITUTO DI RICERCHE DI BIOLOGIA MOLECOLARE P. ANG, priority 2005, published 2009).
Some of these results come from one statement about several compounds together. * marks the point of attachment. AMC = Cc1cc(=O)oc2cc(N*)ccc12

Biological target: T1, HDAC8 (Homo sapiens, UniProt Q9BY41)
T1 sequence (Q9BY41 1-377): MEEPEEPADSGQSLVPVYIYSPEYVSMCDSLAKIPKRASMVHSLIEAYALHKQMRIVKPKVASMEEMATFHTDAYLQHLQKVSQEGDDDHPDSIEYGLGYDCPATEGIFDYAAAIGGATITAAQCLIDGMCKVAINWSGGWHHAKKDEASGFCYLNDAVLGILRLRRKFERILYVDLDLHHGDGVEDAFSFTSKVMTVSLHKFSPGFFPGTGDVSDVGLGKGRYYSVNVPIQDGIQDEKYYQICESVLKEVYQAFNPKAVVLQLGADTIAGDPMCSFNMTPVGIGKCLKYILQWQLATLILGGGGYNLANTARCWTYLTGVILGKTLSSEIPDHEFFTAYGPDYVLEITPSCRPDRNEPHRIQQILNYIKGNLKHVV
Details: substrate of (recombinant) human HDAC8; cited from earlier work

In the case of Ac-Arg-Gly-Lys(Ac)-{AMC}, the Km is listed as ≥ 500 µM.
